Data reported in patent US10154970B2, “Methods for immunomodulation of cancer and infectious disease therapy” (The Regents of the University of California, priority 2014, dated 2018).
At least one structure is not confirmed: it was looked up by name or label, or the drawing left a doubt.

Tests used:
[1] = system: T-cell surface markers (CD4, CD8, PD-1, CD28); assay: Experiment 5: T-cell surface markers of spleen lymphocytes by flow cytometry; type: in vivo, human MUC1.Tg C57BL/6 mice; conditions: estradiol 25 μg/kg daily s.c. 14 days
Protocol: FIG. 11. Lymphocyte phenotypes following different hormonal treatments. (A) CD3+CD4+; (B) CD3+CD8+; (C) CD3+CD28+; (D) CD8+CD28+; (E) CD3+PD-1+; and (F) CD8+PD-1+; T cell surface markers were stained with indicated antibodies after […] of TRIP (100 mg/kg), estradiol (E2; 25 μg/kg), and letrozole (0.8 mg/kg) treatments (n=8 all groups).
A total of 32 female human MUC1.Tg C57BL/6 mice, starting at approximately six weeks of age, were treated with urethane as described (Wurz G T. et al., J. Transl. Med., 11:64 (2013)). Two weeks following the final dose of urethane (Week 17), the mice were randomized into four treatment groups of approximately equal average weight (n=8, all groups): Control (no treatment); TRIP (i.e., ospemifene) 100 mg/kg; estradiol 25 μg/kg; and letrozole 0.8 mg/kg. TRIP and letrozole were prepared in DMSO and peanut oil as described above in Experiment 2 and administered daily for 14 days by oral gavage (100 μL). Estradiol was dissolved in 100% ethanol, diluted in PBS to achieve the desired concentration, and then administered daily for 14 days by s.c. injection at rotating sites using a 25-gauge needle. […]
After two weeks of treatment, lymphocytes were isolated from spleen. T-cell surface markers (CD4, CD8, PD-1, CD28) and regulatory T cells (Tregs) were analyzed by flow cytometry.

[2] = system: IFN-γ; assay: IFN-γ mRNA expression in Jurkat cells by qRT-PCR, normalized with GAPDH; type: cell-based, human
Protocol: (§1) FIG. 1. Interferon gamma (IFN-γ) and interleukin (IL)-2 expression in human Jurkat cells following exposure to TRIP in vitro. Jurkat cells (2×10^6) were treated with different concentrations of TRIP as indicated for 24 hours. (A) IFN-γ and (B) IL-2 mRNA expression levels were detected by quantitative real-time polymerase chain reaction (qRT-PCR) and normalized with the expression of GAPDH. *p<0.05, **p<0.01, ***p<0.001.
FIG. 2. Effect of tamoxifen on TRIP-induced expression of IFN-γ in vitro. Jurkat cells (2×10^6) were treated with TRIP (2.5 μM) and/or tamoxifen (2.5 μM) for 24 hours. The expression levels of IFN-γ were analyzed by qRT-PCR and normalized with GAPDH. **p<0.01, ***p<0.005.
FIG. 3. […] (A, C) IFN-γ and (B, D) IL-2 mRNA expression levels were detected by qRT-PCR and normalized with the expression of GAPDH. *p<0.05, **p<0.01, ***p<0.001.
(§2) FIG. 4. […] (A) IFN-γ and (B) IL-2 mRNA expression levels were detected by qRT-PCR and normalized with the expression of GAPDH. **p<0.01, ***p<0.001, ****p<0.0001.
The potential immune regulating effects of TRIP and the possible mechanism(s) involved were determined with in vitro experiments examining the expression of T cell activating cytokines in human acute T cell leukemia Jurkat cells. […]
The expression levels of IFN-γ were analyzed by qRT-PCR and normalized with GAPDH. **p<0.01, ***p<0.001. […]

[3] = system: IL-2; assay: IL-2 mRNA expression in Jurkat cells by qRT-PCR, normalized with GAPDH; type: cell-based, human
Protocol: as §1
FIG. 3. Effects of TRIP alone and in combination with trifluoperazine (TFP) or LY294002 (LY) on IFN-γ and IL-2 in human Jurkat cells in vitro. […] (A, C) IFN-γ and (B, D) IL-2 mRNA expression levels were detected by qRT-PCR and normalized with the expression of GAPDH. *p<0.05, **p<0.01, ***p<0.001.
as §2
The potential immune regulating effects of TRIP and the possible mechanism(s) involved were determined with in vitro experiments examining the expression of T cell activating cytokines in human acute T cell leukemia Jurkat cells. […] Different inhibitors of key T cell activation pathways—trifluoperazine (TFP), an inhibitor of calmodulin, LY294002, an inhibitor of PI3K, and PD98059, a MAPK inhibitor—in combination with TRIP were assessed for their effects on TRIP-induced expression of IFN-γ and IL-2 in Jurkat cells. […]

[4] = Jurkat cells pretreated 1 hour with PD98059 50 μM, TFP 10 μM or LY294002 25 μM, then 2.5 μM TRIP 24 hours (FIG. 4)
[5] = Jurkat cells pretreated 1 hour with TFP 0.1-10.0 μM or LY294002 1-25 μM, then 2.5 μM TRIP 24 hours (FIG. 3)

| Compound | percentage of PD-1+/CD8+ T cells compared to control [1] | total PD-1+ T lymphocyte population compared to control [1] | TRIP-induced expression of IFN-γ [2, 4] | TRIP-induced expression of IFN-γ [2, 5] | TRIP-induced expression of IL-2 [3, 4] | TRIP-induced expression of IL-2 [3, 5] |
| --- | --- | --- | --- | --- | --- | --- |
| C[C@]12CC[C@@H]3c4ccc(O)cc4CC[C@H]3[C@@H]1CC[C@@H]2O [estradiol] | significantly increased | significantly decreased | – | – | – | – |
| O=c1cc(N2CCOCC2)oc2c(-c3ccccc3)cccc12 [LY294002] | – | – | significantly decreased | significantly decreased | significantly decreased | significantly decreased |
